{"source": "paper PMC9962212", "tested_on": "FlhD + FlhC", "assay": "EMSA", "settings": "up to 100 nM FlhDC, 0.1 pmol probe, EMSA: 37 °C, 30 min in gel shift buffer (composition not given), FlhDC 0/10/30/100 nM, recombinant protein, label: none (GelRed stain), probe letters rebuilt from the primers and the genome", "note": "Construct, isoform or probe ends are uncertain for at least one entry. Negatives hold for the conditions tested."}
{"sequence": "CGTTTGCGCAACGCTCGCGAATTTTTCTCTTTCAATGGTGATCACAATTTTGACTGTGGTTACCGTGGGCAAAATACAGAAATTACATTGATGATTGTGGATAACTCTGTGCGTAAAAAGGTATAAAGCGGGCTTTTGCTGGGGAATGCAGCAGTCAGTCATTTTTCTGCAATTTTTCTATTGCGGCCTGCGGAGAACTCCCTATAATGCGCCTCCATCGACACGGCGGATGTGAATCACTTCACACAAACAGCCGGTTCGGTTGAAGAGAAAAATCCTGAAATTCAGGGTTGACTCTGAAAGAGGAAAGCGTAATATACGCCACCTCGCGACAGTGCGCTAAAGCGCGTCGCAACTGCTCTTTAACAATTTATCAGACAATCTGTGTGGGCACTCGAAG (double strand) [purH/rrsE probe]", "values": [{"measurement": "binding result", "result": "no binding"}]}
